PubChem BioAssay AID504791 – Drosophila RNAi Screening Center, 2011
The deposit covers about 23,000 reagents; below is an unselected part of those that have a named target and a result. In the full data, 199 (0.86%) got an active call. 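Plate-scaled ratios behind the calls are not deposited; printed light signals are raw; many rows marked increased or decreased are still called inactive.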 Not stated in the record: the direction of the score.

Test: 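Genes of the fly required for silencing by miRNA, siRNA or endo-siRNA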 (primary screen)
Cells: Drosophila S2-derived reporter cells
Knock-down reagent: long dsRNA against Drosophila genes, about 150-250 ng dsRNA per well (siRNA assay); about 80-120 ng (miRNA assay)
Time to read-out: about 5 days (siRNA assay); about 4 days (miRNA assay)
Treatment: copper sulfate induction of reporters: 25 µM (siRNA assay); 200 mM stated (miRNA assay), 1-2 days before reading
Measurement: 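Per-well ratio of Renilla over firefly light, expressed relative to that plate's average ratio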
Units: stable assay Renilla, run 1 in luminescence; stable assay firefly, run 1 in luminescence
Hit rule: 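a well was a first-pass pick when its plate-scaled ratio rose above 1.5 (siRNA assay) or 1.6 (miRNA assay), or dropped below 0.6; a gene counted only if two separate dsRNAs agreed on retest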

CecB [DRSC16605] → stable assay Renilla, run 1 = 6434; stable assay firefly, run 1 = 5.53e5; outcome = inactive
Hakai [DRSC02031] → stable assay Renilla, run 1 = 8826; stable assay firefly, run 1 = 2.15e6; outcome = inactive
Nep5 [DRSC16004] → stable assay Renilla, run 1 = 9291; stable assay firefly, run 1 = 5.37e5; outcome = inactive
trem [DRSC15575] → stable assay Renilla, run 1 = 7351; stable assay firefly, run 1 = 4.12e5; outcome = inactive
CG2617 [DRSC02712] → stable assay Renilla, run 1 = 6698; stable assay firefly, run 1 = 3.39e5; outcome = inactive
BuGZ [DRSC02642] → stable assay Renilla, run 1 = 1.91e5; stable assay firefly, run 1 = 1.58e6; outcome = inactive
BuGZ [DRSC02643] → stable assay Renilla, run 1 = 6596; stable assay firefly, run 1 = 4.87e5; outcome = inactive
mms4 [DRSC06249] → stable assay Renilla, run 1 = 6196; stable assay firefly, run 1 = 3.86e5; outcome = inactive
CG18449 [DRSC06754] → stable assay Renilla, run 1 = 6931; stable assay firefly, run 1 = 4.16e5; outcome = inactive
Smr [DRSC19495] → stable siRNA reporter change = reporter ratio raised past the hit cutoff; stable assay Renilla, run 1 = 6582; stable assay firefly, run 1 = 2.05e5; outcome = inactive
Smr [DRSC20288] → stable assay Renilla, run 1 = 4947; stable assay firefly, run 1 = 2.88e5; outcome = inactive
Smr [DRSC22986] → stable siRNA reporter change = reporter ratio raised past the hit cutoff; stable assay Renilla, run 1 = 5051; stable assay firefly, run 1 = 1.66e5; outcome = inactive
Dus1 [DRSC00623] → stable assay Renilla, run 1 = 7234; stable assay firefly, run 1 = 4.36e5; outcome = inactive
Vti1a [DRSC08563] → stable assay Renilla, run 1 = 11133; stable assay firefly, run 1 = 5.41e5; outcome = inactive
SCaMC [DRSC10293] → stable assay Renilla, run 1 = 7415; stable assay firefly, run 1 = 3.87e5; outcome = inactive
SCaMC [DRSC10415] → stable assay Renilla, run 1 = 6752; stable assay firefly, run 1 = 4.68e5; outcome = inactive
sna [DRSC03613] → stable assay Renilla, run 1 = 7183; stable assay firefly, run 1 = 3.56e5; outcome = inactive
asp [DRSC16903] → stable assay Renilla, run 1 = 10514; stable assay firefly, run 1 = 3.98e5; outcome = inactive
mRpS33 [DRSC14239] → stable siRNA reporter change = reporter ratio lowered past the hit cutoff; stable assay Renilla, run 1 = 5450; stable assay firefly, run 1 = 4.96e5; outcome = inactive

Quoted from above, 2 entries:
Smr [DRSC20288] → stable assay Renilla, run 1 = 4947; stable assay firefly, run 1 = 2.88e5; outcome = inactive
Smr [DRSC22986] → stable siRNA reporter change = reporter ratio raised past the hit cutoff; stable assay Renilla, run 1 = 5051; stable assay firefly, run 1 = 1.66e5; outcome = inactive
